According to PMC10431626:
These are yes or no findings as the source states them, for the method shown. Binding seen in cells or lysates may run through a third protein. Some entries that bind do so weakly or less than the wild type.

The chains behind the UniProt entries cited, without tags or fusion partners. Where a name states a change or a piece, a line headed by the entry shows the natural chain unless it says otherwise.
UniProt Q05655: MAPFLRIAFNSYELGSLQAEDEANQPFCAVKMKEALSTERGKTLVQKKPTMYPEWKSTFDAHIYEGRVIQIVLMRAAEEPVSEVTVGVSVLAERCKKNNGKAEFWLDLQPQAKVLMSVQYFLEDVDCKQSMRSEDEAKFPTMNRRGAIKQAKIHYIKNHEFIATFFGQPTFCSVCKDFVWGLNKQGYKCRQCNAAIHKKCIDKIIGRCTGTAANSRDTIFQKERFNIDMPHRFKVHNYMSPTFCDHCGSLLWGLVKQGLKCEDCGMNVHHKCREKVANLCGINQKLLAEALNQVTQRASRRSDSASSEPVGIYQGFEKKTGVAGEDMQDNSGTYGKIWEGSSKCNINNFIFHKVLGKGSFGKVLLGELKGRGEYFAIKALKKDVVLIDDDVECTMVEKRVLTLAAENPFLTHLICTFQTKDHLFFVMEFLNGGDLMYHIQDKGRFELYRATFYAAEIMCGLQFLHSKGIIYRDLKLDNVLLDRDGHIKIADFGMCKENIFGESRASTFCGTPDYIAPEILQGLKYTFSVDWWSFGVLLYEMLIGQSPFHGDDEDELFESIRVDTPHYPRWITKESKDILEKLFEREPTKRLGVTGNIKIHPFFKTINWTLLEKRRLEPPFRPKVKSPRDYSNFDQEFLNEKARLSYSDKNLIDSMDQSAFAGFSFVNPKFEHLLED
UniProt Q15717: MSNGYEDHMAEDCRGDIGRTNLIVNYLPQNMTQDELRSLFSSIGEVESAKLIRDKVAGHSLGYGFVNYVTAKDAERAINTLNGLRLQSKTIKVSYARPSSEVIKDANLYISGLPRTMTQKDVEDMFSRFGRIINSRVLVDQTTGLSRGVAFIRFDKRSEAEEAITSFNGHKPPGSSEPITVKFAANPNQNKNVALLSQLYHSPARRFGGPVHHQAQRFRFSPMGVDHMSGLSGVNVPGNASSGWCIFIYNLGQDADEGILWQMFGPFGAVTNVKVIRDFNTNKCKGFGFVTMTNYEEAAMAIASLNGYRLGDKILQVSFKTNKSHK

How the values were obtained:
[1] = target: protein kinase C (PKC)-δ (human (endogenous in Huh7.5)) (UniProt Q05655); test: co-IP; endogenous proteins; anti-HuR or anti-PKC-δ antibody on Protein G Sepharose, Huh7.5 lysate in polysome lysis buffer (100 mM KCl, 5 mM MgCl2, 10 mM HEPES pH 7.0, 0.5% NP-40, 1 mM DTT, RNasin), 4°C; mock or HCV-JFH1 virus infected cells, 48h; Western blot
[2] = target: human antigen R (HuR) (human (endogenous in Huh7.5)) (UniProt Q15717); test: as above

Substance	binding [1]	binding [2]
human antigen R (HuR) (from UniProt Q15717 1-326)	binds	–
protein kinase C (PKC)-δ (from UniProt Q05655 1-676) (enzyme)	–	binds
